In article PMC5433425 (PeerJ, 2017):
Where two headings read alike, the source gives them in different places. This continues a long series; more values of the same kind are listed elsewhere.

Tested on: E. coli AG100A

CC[n+]1c(-c2ccccc2)c2cc(N)ccc2c2ccc(N)cc21 [EtBr, ethidium bromide]
EtBr fluorescence (EtBr 2 µg/ml, cycle 27): 75.9898
EtBr fluorescence (EtBr 2 µg/ml, cycle 28): 77.3832
EtBr fluorescence (EtBr 2 µg/ml, cycle 29): 78.2202
EtBr fluorescence (EtBr 2 µg/ml, cycle 30): 79.962
EtBr fluorescence (EtBr 3 µg/ml, cycle 1): 23.6289
EtBr fluorescence (EtBr 3 µg/ml, cycle 2): 31.0367
EtBr fluorescence (EtBr 3 µg/ml, cycle 3): 36.8789
EtBr fluorescence (EtBr 3 µg/ml, cycle 4): 42.0548
EtBr fluorescence (EtBr 3 µg/ml, cycle 5): 46.8457
EtBr fluorescence (EtBr 3 µg/ml, cycle 6): 50.4969
EtBr fluorescence (EtBr 3 µg/ml, cycle 7): 53.739
EtBr fluorescence (EtBr 3 µg/ml, cycle 8): 57.7
EtBr fluorescence (EtBr 3 µg/ml, cycle 9): 60.2188
EtBr fluorescence (EtBr 3 µg/ml, cycle 10): 63.6802
EtBr fluorescence (EtBr 3 µg/ml, cycle 11): 66.3455
EtBr fluorescence (EtBr 3 µg/ml, cycle 12): 69.0775
EtBr fluorescence (EtBr 3 µg/ml, cycle 13): 71.7371
EtBr fluorescence (EtBr 3 µg/ml, cycle 14): 74.2494
EtBr fluorescence (EtBr 3 µg/ml, cycle 15): 76.7699
EtBr fluorescence (EtBr 3 µg/ml, cycle 16): 78.313
EtBr fluorescence (EtBr 3 µg/ml, cycle 17): 79.87
EtBr fluorescence (EtBr 3 µg/ml, cycle 18): 81.7847
EtBr fluorescence (EtBr 3 µg/ml, cycle 19): 83.689
EtBr fluorescence (EtBr 3 µg/ml, cycle 20): 85.3511
EtBr fluorescence (EtBr 3 µg/ml, cycle 21): 87.0236
EtBr fluorescence (EtBr 3 µg/ml, cycle 22): 88.6448
EtBr fluorescence (EtBr 3 µg/ml, cycle 23): 90.6444
EtBr fluorescence (EtBr 3 µg/ml, cycle 24): 91.9307
EtBr fluorescence (EtBr 3 µg/ml, cycle 25): 93.5789
EtBr fluorescence (EtBr 3 µg/ml, cycle 26): 96.0079
EtBr fluorescence (EtBr 3 µg/ml, cycle 27): 98.0273
EtBr fluorescence (EtBr 3 µg/ml, cycle 28): 99.4521
EtBr fluorescence (EtBr 3 µg/ml, cycle 29): 99.9756
EtBr fluorescence (EtBr 3 µg/ml, cycle 30): 100
EtBr fluorescence (EtBr 4 µg/ml, cycle 1): 31.8459
EtBr fluorescence (EtBr 4 µg/ml, cycle 2): 43.4753
EtBr fluorescence (EtBr 4 µg/ml, cycle 3): 52.9128
EtBr fluorescence (EtBr 4 µg/ml, cycle 4): 60.4602
EtBr fluorescence (EtBr 4 µg/ml, cycle 5): 67.4623
EtBr fluorescence (EtBr 4 µg/ml, cycle 6): 72.9436
EtBr fluorescence (EtBr 4 µg/ml, cycle 7): 78.0206
EtBr fluorescence (EtBr 4 µg/ml, cycle 8): 82.7408
EtBr fluorescence (EtBr 4 µg/ml, cycle 9): 87.7788
EtBr fluorescence (EtBr 4 µg/ml, cycle 10): 91.8699
EtBr fluorescence (EtBr 4 µg/ml, cycle 11): 96.4154
EtBr fluorescence (EtBr 4 µg/ml, cycle 12): 99.6125
EtBr fluorescence (EtBr 4 µg/ml, cycle 13): 100
EtBr fluorescence (EtBr 4 µg/ml, cycle 14): 100
EtBr fluorescence (EtBr 4 µg/ml, cycle 15): 100
EtBr fluorescence (EtBr 4 µg/ml, cycle 16): 100
EtBr fluorescence (EtBr 4 µg/ml, cycle 17): 100
EtBr fluorescence (EtBr 4 µg/ml, cycle 18): 100
EtBr fluorescence (EtBr 4 µg/ml, cycle 19): 100
EtBr fluorescence (EtBr 4 µg/ml, cycle 20): 100
EtBr fluorescence (EtBr 4 µg/ml, cycle 21): 100
EtBr fluorescence (EtBr 4 µg/ml, cycle 22): 100
EtBr fluorescence (EtBr 4 µg/ml, cycle 23): 100
EtBr fluorescence (EtBr 4 µg/ml, cycle 24): 100
EtBr fluorescence (EtBr 4 µg/ml, cycle 25): 100
EtBr fluorescence (EtBr 4 µg/ml, cycle 26): 100
EtBr fluorescence (EtBr 4 µg/ml, cycle 27): 100
EtBr fluorescence (EtBr 4 µg/ml, cycle 28): 100
EtBr fluorescence (EtBr 4 µg/ml, cycle 29): 100
EtBr fluorescence (EtBr 4 µg/ml, cycle 30): 100
EtBr fluorescence (EtBr 5 µg/ml, cycle 1): 43.7119
EtBr fluorescence (EtBr 5 µg/ml, cycle 2): 58.937
EtBr fluorescence (EtBr 5 µg/ml, cycle 3): 72.1422
EtBr fluorescence (EtBr 5 µg/ml, cycle 4): 81.4934
EtBr fluorescence (EtBr 5 µg/ml, cycle 5): 91.0328
EtBr fluorescence (EtBr 5 µg/ml, cycle 6): 98.7227
EtBr fluorescence (EtBr 5 µg/ml, cycle 7): 100
EtBr fluorescence (EtBr 5 µg/ml, cycle 8): 100
EtBr fluorescence (EtBr 5 µg/ml, cycle 9): 100
EtBr fluorescence (EtBr 5 µg/ml, cycle 10): 100
EtBr fluorescence (EtBr 5 µg/ml, cycle 11): 100
EtBr fluorescence (EtBr 5 µg/ml, cycle 12): 100
EtBr fluorescence (EtBr 5 µg/ml, cycle 13): 100
EtBr fluorescence (EtBr 5 µg/ml, cycle 14): 100
EtBr fluorescence (EtBr 5 µg/ml, cycle 15): 100
EtBr fluorescence (EtBr 5 µg/ml, cycle 16): 100
EtBr fluorescence (EtBr 5 µg/ml, cycle 17): 100
EtBr fluorescence (EtBr 5 µg/ml, cycle 18): 100
EtBr fluorescence (EtBr 5 µg/ml, cycle 19): 100
EtBr fluorescence (EtBr 5 µg/ml, cycle 20): 100
EtBr fluorescence (EtBr 5 µg/ml, cycle 21): 100
EtBr fluorescence (EtBr 5 µg/ml, cycle 22): 100
EtBr fluorescence (EtBr 5 µg/ml, cycle 23): 100
EtBr fluorescence (EtBr 5 µg/ml, cycle 24): 100
EtBr fluorescence (EtBr 5 µg/ml, cycle 25): 100
EtBr fluorescence (EtBr 5 µg/ml, cycle 26): 100
EtBr fluorescence (EtBr 5 µg/ml, cycle 27): 100
EtBr fluorescence (EtBr 5 µg/ml, cycle 28): 100
EtBr fluorescence (EtBr 5 µg/ml, cycle 29): 100
EtBr fluorescence (EtBr 5 µg/ml, cycle 30): 100
